What was measured:
[1] = general procedure: Fmoc solid-phase peptide synthesis; Rink-amide-Chemmatrix resin; details: cyclisation step
[2] = general procedure: Fmoc solid-phase peptide synthesis; Rink-amide-Chemmatrix resin (Biotage Japan, Ltd.); details: late stage modification step

Row | Substance | cyclisation yield [1] [%] | step yield [2] [%]
1 | N-terminally acetylated RRC (Acm-protected)-PEG4-added synthetic peptide GPDCAYHXGELVWCTFH (X = lysine, C-terminally amidated), cyclized via dichloropropanone | 50 | 
2 | N-terminally acetylated RRC-PEG4-added synthetic peptide GPDCAYHXGELVWCTFH (X = lysine, C-terminally amidated), cyclized via dichloropropanone |  | 67

Reference: patent US12037417B2 (Kagoshima University, priority 2016, dated 2024)
